Here are results for one substance from paper PMC5086636 (Toxins, 2016).

By UniProt entry, the sequences of proteins in these tests, tags left out.
UniProt P10844: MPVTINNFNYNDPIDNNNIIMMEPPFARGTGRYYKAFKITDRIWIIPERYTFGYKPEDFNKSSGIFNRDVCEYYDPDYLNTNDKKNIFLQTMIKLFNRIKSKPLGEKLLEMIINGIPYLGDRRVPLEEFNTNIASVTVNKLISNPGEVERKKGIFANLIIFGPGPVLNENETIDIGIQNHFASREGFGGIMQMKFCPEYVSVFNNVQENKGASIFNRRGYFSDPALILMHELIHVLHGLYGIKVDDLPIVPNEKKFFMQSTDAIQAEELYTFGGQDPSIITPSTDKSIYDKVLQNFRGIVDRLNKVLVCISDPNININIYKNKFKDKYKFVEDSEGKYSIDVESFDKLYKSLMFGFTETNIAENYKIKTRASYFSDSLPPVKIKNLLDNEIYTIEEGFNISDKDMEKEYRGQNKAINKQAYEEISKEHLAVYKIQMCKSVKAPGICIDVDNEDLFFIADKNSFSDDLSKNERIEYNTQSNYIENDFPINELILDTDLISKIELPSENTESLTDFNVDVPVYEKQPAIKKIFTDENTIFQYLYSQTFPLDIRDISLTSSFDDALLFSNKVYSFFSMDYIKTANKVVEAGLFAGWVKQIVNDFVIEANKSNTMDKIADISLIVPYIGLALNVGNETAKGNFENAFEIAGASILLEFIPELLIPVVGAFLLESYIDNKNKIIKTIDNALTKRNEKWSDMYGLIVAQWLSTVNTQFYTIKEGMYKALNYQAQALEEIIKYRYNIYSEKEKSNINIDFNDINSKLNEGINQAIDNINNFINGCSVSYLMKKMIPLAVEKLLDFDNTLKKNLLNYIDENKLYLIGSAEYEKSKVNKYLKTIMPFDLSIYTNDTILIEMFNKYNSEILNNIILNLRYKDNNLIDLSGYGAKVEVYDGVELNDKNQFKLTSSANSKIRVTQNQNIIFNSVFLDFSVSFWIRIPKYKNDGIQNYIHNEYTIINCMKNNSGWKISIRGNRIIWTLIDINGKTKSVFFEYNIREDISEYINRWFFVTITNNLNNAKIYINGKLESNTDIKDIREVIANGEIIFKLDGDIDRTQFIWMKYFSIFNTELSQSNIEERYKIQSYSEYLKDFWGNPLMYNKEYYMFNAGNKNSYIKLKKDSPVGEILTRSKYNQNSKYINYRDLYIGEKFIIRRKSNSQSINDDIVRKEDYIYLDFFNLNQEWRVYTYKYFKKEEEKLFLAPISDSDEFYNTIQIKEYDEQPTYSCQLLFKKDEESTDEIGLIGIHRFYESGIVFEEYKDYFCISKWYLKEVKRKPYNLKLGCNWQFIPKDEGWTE

In this experiment the target is Syt-II_(40-60) peptide (amino acid residues 40-60 of the mouse synaptotagmin protein) (mouse). In words: ELISA; only the target purified. (In general: An ELISA detects its analyte on a solid surface through an enzyme-linked reagent.)

Results are given in words; binding and its absence hold for the method and conditions named. Some binding calls cover weakened binding; strength is not graded here.

“Botulinum neurotoxin type B (from UniProt P10844 1-1291)”: the binding entry was “binds”.
